From PubChem BioAssay record AID1159506 (NCATS, 2015).

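Genome-wide siRNA knockdown in TC32 Ewing sarcoma cells, comparing luciferase light from an NR0B1-promoter reporter with a CMV-promoter reporter 48 hours after transfection. Each siRNA was applied at 20 nM. A z-score of the log NR0B1-over-CMV signal, less the median of siRNAs with the same seed; more negative means a stronger specific loss of the NR0B1 reporter.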

The strongest results of the screen are mostly left out here. Sequences are the guide (antisense) strand, without overhang.

- UAUGACUUAUUAGUAUAGC against ZNF337 : seed-corrected z-score -0.1663
- AAUUCGACCAGUCUUGUGC against CORO1C : seed-corrected z-score 0.7889
- UCUUGUAAGCAUAAUAUCC against MGARP : seed-corrected z-score 0.4359
- UAGCGUAGCAAAUCUAAGC against DNAJC21 : seed-corrected z-score 0.2325
- UCUUUUCUCUAUAAACUCC against IER5 : seed-corrected z-score 0.7881
- UUACGGAGAACAACUUGCC against NUP160 : seed-corrected z-score -1.994
- AUACGGAAGAGGGACACGA against FZD7 : seed-corrected z-score -0.1297
- UUCGGCAAAGCAUCCAGUG against STEAP4 : seed-corrected z-score 0.3459
- UUCCGUUUCACUGUAACAG against MYNN : seed-corrected z-score 0.1518
- UACUAUUCACUGUCAUUUC against STX19 : seed-corrected z-score -1.27
- AACAAUACCGGUAAAAUAG against DCST2 : seed-corrected z-score 0.07241
- UCUGUGGUCAGAUGGAUCC against RFPL1 : seed-corrected z-score -0.7423
- UUAUCGCACAUACUGUUGC against PTCD3 : seed-corrected z-score -0.9099
- AAAAGUUCCAGCACAAUGU against TMEM45B : seed-corrected z-score 0.131
- UAUGUACUCAAGAACUUUC against MAGEA11 : seed-corrected z-score 0.1946
- UGAGUUGAAGCAGGAAUGC against LINC01220 : seed-corrected z-score -0.4181
- UUGGAGUUAUCCAUCGACC against STOX2 : seed-corrected z-score 0.2129
- UAGUCAGUCGCUAUCCUGC against SPACA6 : seed-corrected z-score -0.5368
- UAAUUCUCUAGGCGUGAUG against RAI1 : seed-corrected z-score 0.3898
- UUGCUUAGAGCUGCUGACC against PHF19 : seed-corrected z-score -0.4144
- AUGAUCACAAUGUCUCUUG against ZNF707 : seed-corrected z-score -0.6172
- UGAGCUUUUAUCACUACCG against TPX2 : seed-corrected z-score -0.3055
- AUAGAUGUAAGUGACAGCA against PERP : seed-corrected z-score 0.3383
- AUACGUGCCGCUGUUGAAC against PLBD2 : seed-corrected z-score -0.05008
- UCGUCUAGAAUCUUGAUCG against PCDH17 : seed-corrected z-score -0.2672
- UUCAGGUCCAAGAAGCCCU against TSR3 : seed-corrected z-score -0.5653
- UUCUCGUUCUUAUUGUUGG against POLR1A : seed-corrected z-score 0.8644
- AAUUUGAUACCCACUUCCU against TRAPPC6A : seed-corrected z-score -0.3278
- UUCCGGCUCAGUUUUAGGG against FAM120A : seed-corrected z-score 0.5474
- UUUUGUUAAGACUUUGUCC against SLC30A10 : seed-corrected z-score 0.3333
- UAACUCACAAACUAAAGUC against CENPA : seed-corrected z-score 0.057
- UUCUGUUCUGGUUACAUUG against CABYR : seed-corrected z-score -0.4785
- UCAUCCAUAAUAGUGCUCC against ICA1 : seed-corrected z-score -0.09751
- UAAUUUAUAGCAGCCCUGA against LOC730081 : seed-corrected z-score -0.01724
- UAGUAUGCAUCCUUGUUCC against UFSP2 : seed-corrected z-score 1.261
- ACCAGUUACAGCUACAACC against ATP2B1 : seed-corrected z-score -1.481
- UGACUUUCAAGGGUGCACC against MTX3 : seed-corrected z-score -1.541
- UUCGUUUCCACUCAUGAAC against SWT1 : seed-corrected z-score 1.699
- UUUGCUAACAUCCCGAACC against PTGFRN : seed-corrected z-score 0.549
- UCUCAUACACGCACUUCUC against LRP10 : seed-corrected z-score 0.7841
- UCAGGGCUCGUUUCUGUUG against CEP131 : seed-corrected z-score -0.2223
- UGAUGGUCUGUUGAGCUGC against SHANK1 : seed-corrected z-score -1.7
- UUUGGCUCCACCUGGGAAG against LCN15 : seed-corrected z-score 0.5196
- UUAUGAUCCUGGGAAAAUC against OR5AN1 : seed-corrected z-score 0.371
- UAUUGACCGCGGAUAACUC against WRBP1 : seed-corrected z-score -0.3167
- UAGAGUUUGAUACUGCUCC against PCGF6 : seed-corrected z-score 0.7389
- AAACCAGUAGCUGUCGUCG against NUDT1 : seed-corrected z-score -0.3803
- UGAAGAGUCAGUGCAAGUG against DEFB127 : seed-corrected z-score 2.107
- UUUCUUCUUACAGUGGUAC against LBR : seed-corrected z-score 0.7015
- AGGUGGUACAGUGUGAGGC against SRGAP2C : seed-corrected z-score -1.921
- UAACCUUCCUCAUCGUCGC against EEF2K : seed-corrected z-score 0.6288
- UAAAAUAUUACAUAGGUCU against LOC728339 : seed-corrected z-score 0.2412

The first 3 entries again:

- UAUGACUUAUUAGUAUAGC against ZNF337 : seed-corrected z-score -0.1663
- AAUUCGACCAGUCUUGUGC against CORO1C : seed-corrected z-score 0.7889
- UCUUGUAAGCAUAAUAUCC against MGARP : seed-corrected z-score 0.4359